Assay results: paper PMC7819943, “Rice protein-binding microarrays: a tool to detect cis-acting elements near promoter regions in rice”
Some of the results follow.

By UniProt entry, the sequences of proteins in these tests, tags left out.
UniProt Q0JBA9, entry or part of it: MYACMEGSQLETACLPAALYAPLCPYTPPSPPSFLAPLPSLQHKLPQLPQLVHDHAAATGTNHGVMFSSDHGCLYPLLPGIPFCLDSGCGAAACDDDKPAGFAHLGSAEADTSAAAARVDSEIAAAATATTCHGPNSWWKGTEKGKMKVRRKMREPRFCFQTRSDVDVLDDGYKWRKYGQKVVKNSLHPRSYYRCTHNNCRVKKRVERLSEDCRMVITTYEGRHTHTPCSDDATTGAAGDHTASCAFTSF

Each sequence was assayed against OsWRKY34 (Oryza sativa, UniProt Q0JBA9 1-250) (assay: protein-binding microarray (RPBM); PBS, 2% BSA, 51.3 ng/ul salmon testes DNA, 50 uM zinc acetate, 200 nM TF, 25 C, 1 h; high values mean tight binding). Conditions: protein: recombinant; tags: N-terminal polyhistidine and DsRed monomer fusion (pET32a); label: CyDye5-dUTP incorporated in the synthesized complementary strand; 3' TTTTT single-stranded linker to array surface; dsDNA, one strand shown.
Outline: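 Polyhistidine-tagged DsRed fusions of transcription factors, joined at the N-terminus, were expressed in E. coli BL21-CodonPlus and isolated on Ni–NTA. They were incubated at 200 nM for 1 h at 25 °C on a custom Agilent array, double-stranded and BSA-blocked, in PBS with 2% BSA, salmon testes DNA and 50 µM zinc acetate. The binding signal is per-feature fluorescence intensity (arbitrary units) read on an Axon 4000B scanner after washing.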

Sequence | binding signal
TAGCAGCCGCGCCTTCCAGCTCGCCGCGACCGCCCGTGCCCGGAGTCACCTAGTGCAG | 8610 fluorescence intensity (a.u.)
CACTGGGCCTGCCTCTACCCTACCGGCCACTATACTGCTACGGAGTCACCTAGTGCAG | 8210 fluorescence intensity (a.u.)
CACGAGCATGTACTATAGTTTGATGCTTATTTCCTGTCTTCGGAGTCACCTAGTGCAG | 10000 fluorescence intensity (a.u.)
TGGCTTTTTTGTATTCGGGCCCCTTGCCGCCCCACCAGAGCGGAGTCACCTAGTGCAG | 10000 fluorescence intensity (a.u.)
CTTGAGGTCCTTCGATGGTTTTGACCCTGATTTTATTTGACGGAGTCACCTAGTGCAG | 9060 fluorescence intensity (a.u.)
GGGCCTAGTTTTTCCAGGTAAAGTTGACCAAAAGTCTTCACGGAGTCACCTAGTGCAG | 8890 fluorescence intensity (a.u.)
AATCTTAACTACTCTCTCCGTTTCACAATGTAAGTCATTTCGGAGTCACCTAGTGCAG | 9210 fluorescence intensity (a.u.)
ACCGCCATTTCTGGTTTCTTGGCCGCCCTCTGCCACCACTCGGAGTCACCTAGTGCAG | 10300 fluorescence intensity (a.u.)
CCCAGTCAAGCCACCGTAATTCCACACAGTCTCCATGCCTCGGAGTCACCTAGTGCAG | 8680 fluorescence intensity (a.u.)
ATAAGACGGATGGTTAAACGTTGGTCCAAAAGTCAACGGTCGGAGTCACCTAGTGCAG | 13200 fluorescence intensity (a.u.)
GAAGCAAAGGAAGGGAGGGGAGATTGGGTTTGGGTGGTGTCGGAGTCACCTAGTGCAG | 9190 fluorescence intensity (a.u.)
ACTCCTTTTTTGGCTGCCCATCCACAGTCGCCACCAGAAACGGAGTCACCTAGTGCAG | 8210 fluorescence intensity (a.u.)
TATTCATTGGCATAGTTGTGATGCTTTGTTCTTGTTCTTGCGGAGTCACCTAGTGCAG | 8440 fluorescence intensity (a.u.)
TCTCTATGCCGCACCGTGCATCCATGCCTGGTTTTCTTTGCGGAGTCACCTAGTGCAG | 8040 fluorescence intensity (a.u.)
CCCTTGACATAATCCCGAGCGATTTTATTCTATATGGCATCGGAGTCACCTAGTGCAG | 8820 fluorescence intensity (a.u.)
GGAATATATCCTGTTTTTTTTTCATCATTCTCTTTCTTTCCGGAGTCACCTAGTGCAG | 15300 fluorescence intensity (a.u.)
GCCTTCTCCATCTCTCTGCTTCTTTTGTTTGTTTTTCTTTCGGAGTCACCTAGTGCAG | 13000 fluorescence intensity (a.u.)
TTCCTTTTGGCCACTCTTTGATTTCTTTTTTCAATTCTATCGGAGTCACCTAGTGCAG | 11500 fluorescence intensity (a.u.)
TCGCTCGCTTTCTGTCCCTGCGATCTGTCGCCGCCGTCGTCGGAGTCACCTAGTGCAG | 10000 fluorescence intensity (a.u.)
AGGCCCATCGTACTACTTTCCTTCCTGCTATACTCGCGCACGGAGTCACCTAGTGCAG | 13400 fluorescence intensity (a.u.)
GAGCAAAAGGAGAGAGAGAGAGAGTCTTTTCAATTTTCTTCGGAGTCACCTAGTGCAG | 8270 fluorescence intensity (a.u.)
GGTGTGGGAGGAAGAACGGGACGGGGTGGCGTCACCATCGCGGAGTCACCTAGTGCAG | 8250 fluorescence intensity (a.u.)
TCACTCCCCACTACTTTCCCGCTCTCCTCGTATAAAACCTCGGAGTCACCTAGTGCAG | 8280 fluorescence intensity (a.u.)
CTCCATCGCTTCGCTCTTCGCCGGATCTAGCACCGACGGTCGGAGTCACCTAGTGCAG | 9000 fluorescence intensity (a.u.)
TAATCTAGAGTGAGTTTGTACTAATTGGTTGGGTGGTTTTCGGAGTCACCTAGTGCAG | 8860 fluorescence intensity (a.u.)
CCTCCTCAACGCCGCCACCTCATCCGTCCATACAGCGCCGCGGAGTCACCTAGTGCAG | 12100 fluorescence intensity (a.u.)
ATTCTTCTTTCCTTTTGTCTGGAATGCTGATTCCTGAATCCGGAGTCACCTAGTGCAG | 9150 fluorescence intensity (a.u.)

Part of the list above, as labelled records:
GGTGTGGGAGGAAGAACGGGACGGGGTGGCGTCACCATCGCGGAGTCACCTAGTGCAG
  binding signal = 8250 fluorescence intensity (a.u.)
TCACTCCCCACTACTTTCCCGCTCTCCTCGTATAAAACCTCGGAGTCACCTAGTGCAG
  binding signal = 8280 fluorescence intensity (a.u.)

(next part)

Sequence | binding signal
TAATGTTTATTAGGAGTTGTTCATTTTTCGTGCTATATTACGGAGTCACCTAGTGCAG | 8570 fluorescence intensity (a.u.)
GCTTCTTCCTCCGCCACCTCTCTGGTCTTTCCGCGTGTCGCGGAGTCACCTAGTGCAG | 10400 fluorescence intensity (a.u.)
TTAGTGATTTCTTGTCTCCTGATCATCTGTAGTCTGTAGACGGAGTCACCTAGTGCAG | 8160 fluorescence intensity (a.u.)
GGTTTATAAATACCGATGGCCACCTCGTTCTATTATCTCCCGGAGTCACCTAGTGCAG | 8570 fluorescence intensity (a.u.)
TCCTTTTATTCCCATCACTCCATTCATTGTTCTTGTTCTTCGGAGTCACCTAGTGCAG | 9370 fluorescence intensity (a.u.)
ATCTCGCCTCGCACCTCGCACCGCTCGCGCCGCCCCTCGCCGGAGTCACCTAGTGCAG | 9020 fluorescence intensity (a.u.)
GTGTAGTTAATTACTACACTAGGCTTTTGCTCGTCTTCCGCGGAGTCACCTAGTGCAG | 8800 fluorescence intensity (a.u.)
TTGATGGGCTTGCAAACAGGAGATCGACACGTTAGTCTACCGGAGTCACCTAGTGCAG | 8360 fluorescence intensity (a.u.)
TGTGTGGTCGTAGGCTAGGGTTTCTCACGTCTCTCGCTGCCGGAGTCACCTAGTGCAG | 8550 fluorescence intensity (a.u.)
CACCATCATCCTGCATATCTCGTTTAATTGTGTATATATACGGAGTCACCTAGTGCAG | 14100 fluorescence intensity (a.u.)
CCTTTGTGGTTGACCAAATACAACTTCTCTTGGTCTTTTGCGGAGTCACCTAGTGCAG | 9660 fluorescence intensity (a.u.)
GCCAACAGTACAGAGGCCTCGCTTGTTCATCTTCGTCTCGCGGAGTCACCTAGTGCAG | 10900 fluorescence intensity (a.u.)
AATTAGTAGGTATGTGTTTTTCATGGTGATTAACGCTTTTCGGAGTCACCTAGTGCAG | 9070 fluorescence intensity (a.u.)
TATCGAACCAAACTGTGGCATGTACTTAATTTTAGATAATCGGAGTCACCTAGTGCAG | 9500 fluorescence intensity (a.u.)
TACATTGTTGTTCTTTTGAATTGGGACGCTCGATTTTTTCCGGAGTCACCTAGTGCAG | 8350 fluorescence intensity (a.u.)
GAGCCCTTAATCCACTGTTCTAGTGACATAATCCACTGTTCGGAGTCACCTAGTGCAG | 8970 fluorescence intensity (a.u.)
AATATTTCATCAGTTTCTAAATTTTTGACGCCGTTGACTTCGGAGTCACCTAGTGCAG | 10200 fluorescence intensity (a.u.)
ACACCGTTGACTTTTTAGCACGTGTTTGACCGTTCACCTTCGGAGTCACCTAGTGCAG | 26900 fluorescence intensity (a.u.)
GTATATTTTATGTTAACTTAGGGCTTGTTTGGTTTGTAACCGGAGTCACCTAGTGCAG | 8520 fluorescence intensity (a.u.)
ATTCGACGGGCGGACTCACTAACATGCATCACTCCATTTACGGAGTCACCTAGTGCAG | 8360 fluorescence intensity (a.u.)
TGTTTCGATTTTGAAGGGGTGGGTAGGAGAGAGGGGAAAACGGAGTCACCTAGTGCAG | 13400 fluorescence intensity (a.u.)
TTTGTTGACGTTTTTCACATATTTTTATTGTAAACTTGTACGGAGTCACCTAGTGCAG | 9930 fluorescence intensity (a.u.)
ATCGCTGATGACCTTGTCGAATTTGTTGCCAAAGTGGTTCCGGAGTCACCTAGTGCAG | 8670 fluorescence intensity (a.u.)
CATGTCCGCCTACATCCTCGTTCTCGTCATCTTGGTCTGCCGGAGTCACCTAGTGCAG | 10900 fluorescence intensity (a.u.)
CTCTCAATTAGTCTACGACATTTCGTTCTGTCCTCGATCGCGGAGTCACCTAGTGCAG | 8710 fluorescence intensity (a.u.)
TTTTCGCTTTGATCCCTTCTATACCCCTCCCGTTAGGTTTCGGAGTCACCTAGTGCAG | 9330 fluorescence intensity (a.u.)
CGATCGTCCGTTGCTTTGGACCGTTGGTGTGGTAGTAACTCGGAGTCACCTAGTGCAG | 8820 fluorescence intensity (a.u.)
